According to article PMC12510028, “A biophysical and molecular characterization of the interaction between the Alzheimer risk factor BIN1 and the neuronal scaffold protein p140Cap” (The Journal of Biological Chemistry, 2025):
These are yes or no findings as the source states them, for the method shown. For part of these data: Binding seen in cells or lysates may run through a third protein. Some results given as binding are weak or reduced against the parent protein; the word gives no strength. For part of these data: Tags and fused reporters may be left off the sequences shown.

T1: p140Cap from mouse brain (mouse (endogenous in mouse brain)) (UniProt Q9QWI6)
T1 sequence: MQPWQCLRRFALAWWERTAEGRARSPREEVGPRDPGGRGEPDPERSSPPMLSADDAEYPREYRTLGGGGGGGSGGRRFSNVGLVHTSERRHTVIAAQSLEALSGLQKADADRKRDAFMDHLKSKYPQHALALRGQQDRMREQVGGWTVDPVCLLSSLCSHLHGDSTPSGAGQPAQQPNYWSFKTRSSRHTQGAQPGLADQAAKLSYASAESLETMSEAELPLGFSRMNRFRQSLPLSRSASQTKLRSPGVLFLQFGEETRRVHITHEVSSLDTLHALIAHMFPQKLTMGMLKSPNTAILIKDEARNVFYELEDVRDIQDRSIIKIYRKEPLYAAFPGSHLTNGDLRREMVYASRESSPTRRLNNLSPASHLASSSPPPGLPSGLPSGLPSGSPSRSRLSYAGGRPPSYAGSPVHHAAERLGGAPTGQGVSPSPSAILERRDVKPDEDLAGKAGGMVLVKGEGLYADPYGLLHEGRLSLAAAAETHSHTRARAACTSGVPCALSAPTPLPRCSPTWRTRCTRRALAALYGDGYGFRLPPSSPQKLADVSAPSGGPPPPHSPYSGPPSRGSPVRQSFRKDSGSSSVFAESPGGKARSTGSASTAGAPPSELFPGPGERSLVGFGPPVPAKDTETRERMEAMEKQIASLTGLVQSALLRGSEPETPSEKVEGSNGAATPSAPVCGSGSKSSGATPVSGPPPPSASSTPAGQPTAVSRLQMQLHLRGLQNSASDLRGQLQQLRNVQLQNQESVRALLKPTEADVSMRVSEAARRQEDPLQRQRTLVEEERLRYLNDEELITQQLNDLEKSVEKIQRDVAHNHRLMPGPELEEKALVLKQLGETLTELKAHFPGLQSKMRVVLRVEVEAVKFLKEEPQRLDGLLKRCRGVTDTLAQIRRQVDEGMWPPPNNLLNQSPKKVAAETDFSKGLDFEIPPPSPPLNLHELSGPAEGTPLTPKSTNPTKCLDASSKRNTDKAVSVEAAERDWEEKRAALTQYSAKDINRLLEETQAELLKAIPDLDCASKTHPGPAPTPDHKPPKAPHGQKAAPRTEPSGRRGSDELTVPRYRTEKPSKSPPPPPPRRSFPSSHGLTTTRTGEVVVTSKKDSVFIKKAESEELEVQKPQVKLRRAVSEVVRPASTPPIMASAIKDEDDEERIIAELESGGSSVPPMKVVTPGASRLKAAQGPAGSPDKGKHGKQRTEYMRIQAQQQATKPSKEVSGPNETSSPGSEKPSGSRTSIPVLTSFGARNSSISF

T2: GST-tagged BIN1-SH3 domain fusion protein (WT) (human) (UniProt O00499)
T2 sequence: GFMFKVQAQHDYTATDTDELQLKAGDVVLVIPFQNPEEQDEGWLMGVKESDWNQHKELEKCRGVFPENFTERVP

T3: Avi-tagged BIN1 SH3 domain (human) (UniProt O00499)
T3 sequence (chain, biotin within the 15 amino acid AviTag peptide (enzymatic, in E. coli)): T2 sequence

B1: p140Cap from mouse brain (protein, UniProt Q9QWI6 1-1250)
chain: T1 sequence

How the values were obtained:
[1] = biological target: T1, p140Cap from mouse brain (mouse (endogenous in mouse brain)); experiment: proximity ligation; Duolink in situ PLA on fixed paraffin sections of mouse brain (nTg, BIN1-cKO, BIN1-OE) with BIN1 rabbit mAb and p140Cap mAb
[2] = biological target: T2, GST-tagged BIN1-SH3 domain fusion protein (WT) (human); experiment: pull-down; 25 μg GST or GST-BSH3 (WT or mutant) on glutathione-Sepharose with 0.5 mg of 1% Triton X-100 soluble mouse brain homogenate, 2 h at room temperature; washes with 50 mM KCl, 150 mM NaCl, 1.5% IGEPAL; immunoblot for p140Cap and total tau; only the target purified
[3] = biological target: T3, Avi-tagged BIN1 SH3 domain (human); experiment: SPR; Biacore S200, Biotin CAPture chip; biotinylated Avi-BIN1-SH3 captured on flow cell 2, Avi-tagged CTX-M-14 β-lactamase on reference flow cell 1; peptides injected as analytes at 30 μl/min; 25 °C, 1X PBS-P+; steady-state analysis, 1:1 model; both purified

Row | Molecule | binding [3] | other results
1 | BIN1 from mouse brain (from UniProt O08539 1-588) | – | binding [1]: binds
2 | B1 | – | binding [2]: binds
3 | GYGFRLPPSSPQKL (N-terminal acetylation; C-terminal amination (so in the source)) [p140Cap 14-mer peptide 498-512] | no binding | –
4 | ERSLVGFGPPVPAK (N-terminal acetylation; C-terminal amination (so in the source)) [p140Cap 14-mer peptide 583-596] | no binding | –
5 | KSPPPPP [p140Cap native class I 7-mer peptide] | no binding (tested: 0.6–75 μM tested) | –
6 | PPPPPPR [p140Cap native class IIb 7-mer peptide] | no binding (tested: 0.6–75 μM tested) | –
